# Measured values from paper PMC7819943, “Rice protein-binding microarrays: a tool to detect cis-acting elements near promoter regions in rice”.
# Some of the results follow.
# Target: T1, OsSMF1 (Oryza sativa, UniProt Q6ZLB0 1-436)
# T1 sequence: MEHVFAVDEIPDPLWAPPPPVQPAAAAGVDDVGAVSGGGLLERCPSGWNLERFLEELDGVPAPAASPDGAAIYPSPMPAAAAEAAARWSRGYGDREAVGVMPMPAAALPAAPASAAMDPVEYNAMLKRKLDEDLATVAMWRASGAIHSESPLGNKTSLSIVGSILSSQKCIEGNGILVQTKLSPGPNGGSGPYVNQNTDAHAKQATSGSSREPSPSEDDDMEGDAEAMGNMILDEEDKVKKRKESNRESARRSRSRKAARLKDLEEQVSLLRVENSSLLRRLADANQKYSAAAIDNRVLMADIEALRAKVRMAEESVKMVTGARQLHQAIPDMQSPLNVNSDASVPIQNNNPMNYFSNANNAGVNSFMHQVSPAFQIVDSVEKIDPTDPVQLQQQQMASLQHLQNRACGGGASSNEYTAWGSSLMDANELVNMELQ
# Assay: protein-binding microarray (RPBM); PBS, 2% BSA, 51.3 ng/ul salmon testes DNA, 50 uM zinc acetate, 200 nM TF, 25 C, 1 h; high values mean tight binding
# Settings: protein: recombinant; tags: N-terminal polyhistidine and DsRed monomer fusion (pET32a); chain copies: 2; label: CyDye5-dUTP incorporated in the synthesized complementary strand; 3' TTTTT single-stranded linker to array surface; dsDNA, one strand shown
# Outline: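 Binding signal is defined as the fluorescence intensity of each feature in arbitrary units, read on an Axon 4000B scanner. Transcription factors with N-terminal polyhistidine and DsRed fusions came from E. coli BL21-CodonPlus and were purified on Ni–NTA. They were incubated at 200 nM for 1 h at 25 °C on a custom Agilent array that had been made double-stranded with Cy5-dUTP, with 50 µM zinc acetate present, and the array was washed.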
row,Sequence,binding signal
1,CGAGCACGCAAATTAATCGTGTGTCATCGGGCAACCACACCGGAGTCACCTAGTGCAG,7250 fluorescence intensity (a.u.)
2,TGTCCTTCTGCATGCATCCTCCACATCAGGCTAACCACCCCGGAGTCACCTAGTGCAG,5680 fluorescence intensity (a.u.)
3,TCCATGGCGCCACACGTCACCACCTTCTCACACCCTCGTCCGGAGTCACCTAGTGCAG,18400 fluorescence intensity (a.u.)
4,GATGGATCGGTTAGTCTTGTTAATTTCGTCATCAGCTTATCGGAGTCACCTAGTGCAG,3270 fluorescence intensity (a.u.)
5,CGTCTGGCCCTGCCACATGACATGCATGCGCCACGCACGACGGAGTCACCTAGTGCAG,5910 fluorescence intensity (a.u.)
6,TGTAAACATCCCATACTGGCTCTTACGCAAAACTTTCACCCGGAGTCACCTAGTGCAG,54100 fluorescence intensity (a.u.)
7,CCGCACCCGAATCTCGCGGCGTCGCCTCGTCAGACCTCAGCGGAGTCACCTAGTGCAG,4400 fluorescence intensity (a.u.)
8,CCCTTCCGGCTTCCACGCGTCGGGAACCGAAGTCCAAACCCGGAGTCACCTAGTGCAG,3360 fluorescence intensity (a.u.)
9,TACTGACATGTGGACCTGATGATCTTTAGACCCACATGTCCGGAGTCACCTAGTGCAG,3470 fluorescence intensity (a.u.)
10,TCACTGCGTGCATGTATGTACGTGGATTGTCCAATTACAACGGAGTCACCTAGTGCAG,3300 fluorescence intensity (a.u.)
11,ATATCTGCTTATGTCACTCATCTCATCTGCTAAATTTGGCCGGAGTCACCTAGTGCAG,7870 fluorescence intensity (a.u.)
12,AGTCAACAACAGGCGGGAGGAGGGGAGGAGGCGGAGGCAGCGGAGTCACCTAGTGCAG,4630 fluorescence intensity (a.u.)
13,CCTTTGTCGTCTCAGCACTTGCTGTTAATTGTATACCCCACGGAGTCACCTAGTGCAG,3350 fluorescence intensity (a.u.)
14,AGTCTATTGCTGAGATGTACATGTTTTATAGATAGCACCTCGGAGTCACCTAGTGCAG,3400 fluorescence intensity (a.u.)
15,CACATGTGGACCCACATGTCATTGAGATAGGGGTGGCAAACGGAGTCACCTAGTGCAG,3780 fluorescence intensity (a.u.)
16,CGTCGTCTTGTTGCTGCTGACGAGCCCGCTGATTTTGGCTCGGAGTCACCTAGTGCAG,4790 fluorescence intensity (a.u.)
17,TGATGGAATGCAAGCGTGAGTGTATGGCACATGATAACATCGGAGTCACCTAGTGCAG,23600 fluorescence intensity (a.u.)
18,CTAAACAGGCCCTAAGCCTGCCATAGAGTGTAAATCATTTCGGAGTCACCTAGTGCAG,3140 fluorescence intensity (a.u.)
19,ATTGAATTTATCAAATCTTTGTGTTCATCGCGTAAGCATGCGGAGTCACCTAGTGCAG,3140 fluorescence intensity (a.u.)
20,GGCCAGGGCCAGTCGCGTCCGCGTTTGATCTCCGTCAGATCGGAGTCACCTAGTGCAG,3700 fluorescence intensity (a.u.)
21,TCACCAACCCGACGTGGCCGCTCTTCCACGTCAACATCCTCGGAGTCACCTAGTGCAG,22100 fluorescence intensity (a.u.)

row,Sequence,binding signal
1,GCAGCAGCAGCAGCAGGAGGAGGAGGAGGGAGGAGGATTGCGGAGTCACCTAGTGCAG,3310 fluorescence intensity (a.u.)
2,CACGACAAACTGAGCCAAAATTCACAAGTCTGCGGAGAAACGGAGTCACCTAGTGCAG,7060 fluorescence intensity (a.u.)
3,GAAGCCATCCACGCGGCACCATCGGACGGCTCTCGCGCCCCGGAGTCACCTAGTGCAG,5210 fluorescence intensity (a.u.)
4,AGCAGGAGGAGGAGGTGGTGGTGGCCATCGACGTGGACCGCGGAGTCACCTAGTGCAG,10200 fluorescence intensity (a.u.)
5,GTATGGTTTTAATTTTATGTGTATTCGGATGACATGGATACGGAGTCACCTAGTGCAG,3920 fluorescence intensity (a.u.)
6,TATTTCTTGGCCATACTTTTGCCACATGCCACAACTTACCCGGAGTCACCTAGTGCAG,4870 fluorescence intensity (a.u.)
7,ATCTGACTTGGTAGTCCTGACGACCTGACCATACATATGCCGGAGTCACCTAGTGCAG,3470 fluorescence intensity (a.u.)
8,GCTGCTAGCTGGCTCAGGCTGTCGTCATGTTCCAAAAGTCCGGAGTCACCTAGTGCAG,4960 fluorescence intensity (a.u.)
9,TTTGTATAACATAGTAGTTTTGTCAATATACTTAAGTCACCGGAGTCACCTAGTGCAG,3450 fluorescence intensity (a.u.)
10,CACGTATTCTCCCAAACCGCGTCATCCTCCATCTATCTACCGGAGTCACCTAGTGCAG,6980 fluorescence intensity (a.u.)
11,GATTCCGTAGTCGTCGTCATCAGTAGTCTATCGATTTTGCCGGAGTCACCTAGTGCAG,7900 fluorescence intensity (a.u.)
12,TTGCTGGCCACAGCTGACGCTGAATGTTGGCCTGCAGCCTCGGAGTCACCTAGTGCAG,4900 fluorescence intensity (a.u.)
13,AGCCTTGTATTACCTGTCAGGTGACAGGTGGGGCCCCAGACGGAGTCACCTAGTGCAG,4620 fluorescence intensity (a.u.)
14,TAGCATCGCCACGCTGACACCGAGACGAGCTCCGACCGCTCGGAGTCACCTAGTGCAG,4100 fluorescence intensity (a.u.)
15,CTCGAGATTCGTGCGGCGGAAAACCGACGGCCGAGATAGGCGGAGTCACCTAGTGCAG,31900 fluorescence intensity (a.u.)
16,AGTGGGCCCCACCCCGTCCGAGTCAGCGGCAACGGCCGGCCGGAGTCACCTAGTGCAG,7140 fluorescence intensity (a.u.)
17,CAATTAAATCTTTACAACAAGATCTCACATGATTATATTTCGGAGTCACCTAGTGCAG,12800 fluorescence intensity (a.u.)
18,CGAGCCACTGCTCACGTGGGCCCGTGGCGTCCCCAGACCCCGGAGTCACCTAGTGCAG,5150 fluorescence intensity (a.u.)
19,GCCCCGTCGACAACAACGGGCTCAGACAACTGCGACAGTGCGGAGTCACCTAGTGCAG,4220 fluorescence intensity (a.u.)
20,CGCCTGCTGCCGCGCCGCCGCGCCGTACGCCCACCTCCCGCGGAGTCACCTAGTGCAG,3530 fluorescence intensity (a.u.)
21,CGATATACCTATCCTGACTGGGGACGTGGCGGACACCCATCGGAGTCACCTAGTGCAG,9570 fluorescence intensity (a.u.)

# Looked up above:
# Value for GCAGCAGCAGCAGCAGGAGGAGGAGGAGGGAGGAGGATTGCGGAGTCACCTAGTGCAG under binding signal: 3310 fluorescence intensity (a.u.)
# Value for TAGCATCGCCACGCTGACACCGAGACGAGCTCCGACCGCTCGGAGTCACCTAGTGCAG under binding signal: 4100 fluorescence intensity (a.u.)
# Value for TTTGTATAACATAGTAGTTTTGTCAATATACTTAAGTCACCGGAGTCACCTAGTGCAG under binding signal: 3450 fluorescence intensity (a.u.)
